Experimental data: publication PMC2651596
Read-outs that look alike come from different tables or passages of the source. These are yes or no findings as the source states them, for the method shown. In cells and extracts the contact can be indirect. Some binding calls cover weakened binding; strength is not graded here. Where a sequence is shown, tags or fusion partners need not be part of it.

By UniProt entry, the sequences of proteins in these tests, tags left out.
UniProt O35625: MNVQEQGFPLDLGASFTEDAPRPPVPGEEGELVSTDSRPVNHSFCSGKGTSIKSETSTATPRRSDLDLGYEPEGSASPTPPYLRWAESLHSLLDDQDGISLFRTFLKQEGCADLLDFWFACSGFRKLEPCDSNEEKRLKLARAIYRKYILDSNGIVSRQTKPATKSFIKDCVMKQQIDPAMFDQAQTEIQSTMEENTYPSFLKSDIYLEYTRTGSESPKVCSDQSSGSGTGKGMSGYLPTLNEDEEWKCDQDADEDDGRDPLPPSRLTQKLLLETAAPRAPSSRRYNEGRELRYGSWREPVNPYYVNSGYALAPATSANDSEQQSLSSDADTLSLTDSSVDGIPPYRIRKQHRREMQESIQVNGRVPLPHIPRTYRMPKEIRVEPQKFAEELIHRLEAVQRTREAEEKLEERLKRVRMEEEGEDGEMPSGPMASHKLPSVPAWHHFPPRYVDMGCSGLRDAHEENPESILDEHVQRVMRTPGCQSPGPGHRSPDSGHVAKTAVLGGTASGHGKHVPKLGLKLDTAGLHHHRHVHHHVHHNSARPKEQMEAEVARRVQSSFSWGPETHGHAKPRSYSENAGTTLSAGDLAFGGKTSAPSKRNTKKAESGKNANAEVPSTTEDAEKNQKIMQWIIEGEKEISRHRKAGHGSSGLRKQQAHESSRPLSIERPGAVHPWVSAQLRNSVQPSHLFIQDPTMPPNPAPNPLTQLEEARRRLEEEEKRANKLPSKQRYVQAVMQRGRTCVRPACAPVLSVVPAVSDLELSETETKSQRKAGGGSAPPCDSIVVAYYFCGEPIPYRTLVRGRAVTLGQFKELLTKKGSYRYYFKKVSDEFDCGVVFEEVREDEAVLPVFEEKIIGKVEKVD
UniProt O35973: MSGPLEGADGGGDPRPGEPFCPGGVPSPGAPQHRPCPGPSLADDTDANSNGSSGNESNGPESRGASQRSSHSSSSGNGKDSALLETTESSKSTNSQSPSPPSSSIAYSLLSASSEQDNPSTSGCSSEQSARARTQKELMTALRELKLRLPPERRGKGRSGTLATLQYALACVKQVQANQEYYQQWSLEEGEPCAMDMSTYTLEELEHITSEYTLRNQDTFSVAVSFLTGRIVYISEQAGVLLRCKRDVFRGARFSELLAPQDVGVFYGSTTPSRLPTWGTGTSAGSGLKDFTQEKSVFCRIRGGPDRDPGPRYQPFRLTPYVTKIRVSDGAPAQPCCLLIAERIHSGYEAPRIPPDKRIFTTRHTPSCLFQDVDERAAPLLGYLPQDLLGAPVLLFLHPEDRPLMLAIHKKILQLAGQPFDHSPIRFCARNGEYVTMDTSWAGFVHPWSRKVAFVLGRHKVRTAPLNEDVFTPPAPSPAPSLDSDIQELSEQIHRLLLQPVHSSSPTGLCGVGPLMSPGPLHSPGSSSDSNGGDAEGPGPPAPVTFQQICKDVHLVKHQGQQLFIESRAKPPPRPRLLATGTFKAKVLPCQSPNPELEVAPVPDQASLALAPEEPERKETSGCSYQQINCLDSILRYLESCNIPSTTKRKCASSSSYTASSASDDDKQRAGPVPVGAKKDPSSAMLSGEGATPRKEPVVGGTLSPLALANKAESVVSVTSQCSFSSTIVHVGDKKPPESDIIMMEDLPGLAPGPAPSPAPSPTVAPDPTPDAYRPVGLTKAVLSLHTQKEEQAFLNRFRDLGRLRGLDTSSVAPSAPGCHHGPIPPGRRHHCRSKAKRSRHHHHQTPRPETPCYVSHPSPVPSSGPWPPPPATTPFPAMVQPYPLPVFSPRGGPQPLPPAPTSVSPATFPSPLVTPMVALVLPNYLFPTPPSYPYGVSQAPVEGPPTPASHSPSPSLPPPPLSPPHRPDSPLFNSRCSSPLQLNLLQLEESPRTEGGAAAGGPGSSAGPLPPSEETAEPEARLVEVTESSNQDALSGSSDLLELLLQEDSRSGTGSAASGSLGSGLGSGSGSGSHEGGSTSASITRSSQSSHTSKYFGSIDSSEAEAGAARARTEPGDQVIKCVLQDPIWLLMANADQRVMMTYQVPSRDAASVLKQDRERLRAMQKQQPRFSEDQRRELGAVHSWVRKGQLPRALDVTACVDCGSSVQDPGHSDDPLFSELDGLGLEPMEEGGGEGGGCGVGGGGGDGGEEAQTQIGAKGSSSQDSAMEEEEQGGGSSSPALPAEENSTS

T1: full-length Xenopus CKIα fused to GST (Xenopus laevis) (UniProt P67963)
T1 sequence: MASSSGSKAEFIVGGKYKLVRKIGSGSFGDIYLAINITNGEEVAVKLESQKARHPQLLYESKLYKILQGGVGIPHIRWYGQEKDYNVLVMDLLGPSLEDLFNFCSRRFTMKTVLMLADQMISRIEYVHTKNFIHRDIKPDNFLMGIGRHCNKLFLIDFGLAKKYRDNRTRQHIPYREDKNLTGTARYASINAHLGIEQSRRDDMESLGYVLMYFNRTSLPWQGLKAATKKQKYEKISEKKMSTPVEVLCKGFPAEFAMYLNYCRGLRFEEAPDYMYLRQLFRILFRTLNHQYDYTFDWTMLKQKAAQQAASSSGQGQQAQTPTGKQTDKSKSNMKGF


Key:
[1] = molecular target: T1, full-length Xenopus CKIα fused to GST (Xenopus laevis); assay: pull-down; GST fusion kinase bound to glutathione sepharose, incubated with 35S-labeled substrate; 4°C, 40 minutes, 20 mM Tris pH 7.5, 150 mM NaCl, 0.5% Nonidet P-40, 1 mM DTT; full-length CKIε and CKIα→ε constructs dephosphorylated with SAP, or CKIε autophosphorylated with ATP, on the resin; only the target purified
[2] = molecular target: T1, full-length Xenopus CKIα fused to GST (Xenopus laevis); assay: as above; remark: listed apart in the source

binding [1]	binding [2]	Molecule
binds	–	mouse Axin, 35S-labelled (from UniProt O35625 1-863)
no binding	–	mouse Per1, 35S-labelled (from UniProt O35973 1-1291)
–	no binding	Xenopus Dishevelled, 35S-labelled (protein, UniProt P51142 1-736, 35S-methionine label) MAETKVIYHLDEEETPYLVKVPVPATDIRLRDFKAALGRGHAKYFFKAMDQDFGVVKEEISDDNAKLPCFNDRVVSWLASSEGSQPDSAPPAPATEVRPEPPPPVPPPIPPPPAERTSGIGDSRPPSFHPNVSGSTEQLDQDNESVISMRRDRVRRRESSEQAGVGRGVNGRTERHLSGYESSSTLLTSEIETSICDSEEDDTMSRFSSSTEQSSASRLLKRHRRRRKQRPPRLERTSSFSSVTDSTMSLNIITVTLNMEKYNFLGISIVGQSNERGDGGIYIGSIMKGGAVAADGRIEPGDMLLQVNDINFENMSNDDAVRVLRDIVHKPGPIVLTVAKCWDPSPQGYFTLPRNEPIHPIDPAAWVSHSAALSGSFPVYPGSASMSSMTSSTSVTETELSHALPPVSLFSLSVHTDLASVVKVMASPESGLEVRDRMWLKITIPNAFLGSDVVDWLYHHVEGFQDRREARKFASNLLKAGFIRHTVNKITFSEQCYYIFGDLTGCENYMTNLSLNDNDGSSGASDQDTLAPLPLPGASPWPLLPTFSYQYQAPHPYSTQPPAYHELSSYSYGMGSAGSQHSEGSRSSGSNRSDGGRGMQKDDRSGVAGVGGGDSKSGSGSESEYSTRSSIRRVGGGEAGPPSERSTSSRLPPHHPPSVHSYAAPGVPLSYNPMMLMMMPPPPLPPPGVCPPNSSVPPGAPPLVRDLASVPPELTATRQSFHMAMGNPSEFFVDVM
